Experimental data from patent US20190177426A1 (BRIGHAM AND WOMEN S HOSPITAL, published 2019).
These are yes or no findings as the source states them, for the method shown. Some entries that bind do so weakly or less than the wild type.

Legend:
[1] = target: T1, human fibulin-3 (human, UniProt Q12805 18-493, limits assumed); experiment: Western blot of purified human fibulin-3 (non-reducing), HEK293 medium 1 mg/ml total protein
T1 construct: Purified human fibulin-3 in Western blot, dot blot and BIACORE (there pretreated with 10 mM DTT to dissociate multimers); The same entry is used for fibulin-3 secreted by transfected CNS1 cells and for native fibulin-3 in human tissue sections; also called Fib3; EFEMP1 gene product
T1 sequence (looked up): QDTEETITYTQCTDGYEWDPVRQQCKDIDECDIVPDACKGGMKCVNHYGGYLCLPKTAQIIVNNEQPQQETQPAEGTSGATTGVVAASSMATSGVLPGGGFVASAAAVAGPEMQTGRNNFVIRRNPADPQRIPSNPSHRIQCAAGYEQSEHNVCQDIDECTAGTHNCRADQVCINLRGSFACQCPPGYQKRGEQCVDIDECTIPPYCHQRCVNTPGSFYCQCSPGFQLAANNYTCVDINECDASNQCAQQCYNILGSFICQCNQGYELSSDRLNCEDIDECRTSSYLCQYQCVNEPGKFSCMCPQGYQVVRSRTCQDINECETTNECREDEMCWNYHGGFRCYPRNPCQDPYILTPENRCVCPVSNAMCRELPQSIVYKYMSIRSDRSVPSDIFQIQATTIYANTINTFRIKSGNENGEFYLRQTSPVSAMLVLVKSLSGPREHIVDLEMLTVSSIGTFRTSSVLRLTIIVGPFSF

[2] = target: T1, human fibulin-3; experiment: Western blot of purified human fibulin-3 resolved in non-reducing conditions, probed with concentrated medium of transfected HEK293 cells (1 mg/ml total protein), detected with anti-human IgG

binding [1]: binds
binding [2]: binds
B1: semi-humanized mAb428.2 (antibody, V domains shown)
VH: QIQLVQSGPELKKPGETVKISCKASGYSFTTYGMSWVKQAPGKGLKWMGWINTHSGVPTYADDFKGRFAFFLETSASTAYLQINNLKNEDTATYFCARWVDYWGQGTTLTVSS
VL: DIKMTQSPSSMYASLGERVTITCKASQDIKSYLSWHQQKPWKSPKTLIYYATSLADGVPSRFSGSGSGQDYSLTISSLESDDTATYYCLQHGKSPYTFGGGTKLEIKG
